{
  "source": "patent US9295629B2",
  "about": "(CAREGEN CO., LTD., priority 2011, dated 2016)",
  "assay": "general procedure: peptide synthesis; CTL resin",
  "details": "whole synthesis",
  "note": "Where no end group is shown, it is not given here.",
  "data": [
    {"sequence": "LCCGRGHRTRTQR (cysteine pairing not given here)", "values": [
      {"measurement": "crude mass", "value": 0.65, "unit": "g"},
      {"measurement": "crude yield", "setting": "scale of the general procedure 700 mg resin", "value": 92.6, "unit": "%"}
    ]}
  ]
}
